Reference: PubChem BioAssay AID1259279 (Sanger Institute, 2017)
The deposit covers 794 reagents; this is a random part of them. 11 of them (1.4%) count as active. 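Calls reflect knock-down alone in the vehicle arm, not drug synergy.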 Entries without a mark were called inactive. Viability is capped at 1. Not given: the amount of reagent, the time to read-out.

- Purpose: 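Kinases that colorectal cancer cells need to survive, alone or with drugs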 (primary screen)
- Cell system: LS180 human colorectal cancer cells
- Reagent: siRNA pool against human genes
- Conditions: anchor drug BYL719 at 1 µM, cetuximab at 5 µg/ml or trametinib at 10 nM, or DMSO vehicle only
- Measurement: 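Cell viability versus a non-targeting pool, as a fraction and as a robust z-score from replicate means, plus a synergy score for each of three drugs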
- Reading the numbers: viability z-score, no drug: higher = more viable cells after knock-down; viability, no drug: higher = more viable cells; synergy score with BYL719 and synergy score with cetuximab and synergy score with trametinib: higher = stronger synthetic lethal synergy with drug
- Hit rule: 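Essential (active) calls need a no-drug viability z-score lower than -3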
- Meaning of the calls: active = essential (knock-down alone cuts viability); inactive = no change without drug

| Target gene | viability z-score, no drug | viability, no drug (fraction) | synergy score with BYL719 | synergy score with cetuximab | synergy score with trametinib |
| --- | --- | --- | --- | --- | --- |
| PAPSS1 (3'-phosphoadenosine 5'-phosphosulfate synthase 1) | -0.0171 | 0.904 | -0.243 | -0.246 | 0.0094 |
| HSPB8 (heat shock protein family B (small) member 8) | -0.282 | 0.875 | 0.0398 | -0.034 | 0.0685 |
| MAPK14 (mitogen-activated protein kinase 14) | 0.86 | 1 | 0.0424 | -0.0812 | 0.0513 |
| CKS2 (CDC28 protein kinase regulatory subunit 2) | 0.564 | 0.968 | -0.119 | -0.0265 | -0.12 |
| PIKFYVE (phosphoinositide kinase, FYVE-type zinc finger containing) | -0.082 | 0.897 | -0.128 | -0.0336 | -0.0556 |
| DCLK2 (doublecortin like kinase 2) | -3 (active) | 0.579 | -0.108 | -0.172 | -0.0818 |
| NME3 (NME/NM23 nucleoside diphosphate kinase 3) | -1.35 | 0.759 | -0.126 | -0.123 | -0.205 |
| KCNH2 (potassium voltage-gated channel subfamily H member 2) | 0.86 | 1 | 0.071 | -0.0537 | 0.00278 |
| RTN4 (reticulon 4) | 0.86 | 1 | -0.0407 | 0.0357 | -0.0851 |
| GUCY2F (guanylate cyclase 2F, retinal) | 0.86 | 1 | -0.0678 | -0.0558 | 0.0154 |
| TEK (TEK receptor tyrosine kinase) | 0.86 | 1 | -0.0493 | -0.155 | 0.059 |
| RBKS (ribokinase) | -1.25 | 0.77 | -0.215 | -0.233 | -0.199 |
| PKN3 (protein kinase N3) | 0.475 | 0.958 | -0.0658 | -0.000845 | -0.0691 |
| MUSK (muscle associated receptor tyrosine kinase) | -0.291 | 0.874 | -0.0269 | 0.212 | 0.176 |
| EXOSC10 (exosome component 10) | -1.19 | 0.776 | -0.0858 | -0.129 | -0.0449 |
| DGKA (diacylglycerol kinase alpha) | -2.34 | 0.651 | -0.0782 | 0.0279 | -0.17 |
| IRAK4 (interleukin 1 receptor associated kinase 4) | 0.854 | 0.999 | 0.011 | -0.149 | -0.118 |
| MAP3K3 (mitogen-activated protein kinase kinase kinase 3) | 0.296 | 0.938 | -0.0213 | -0.0906 | 0.0137 |
| EPHA2 (EPH receptor A2) | 0.86 | 1 | -0.201 | -0.166 | -0.124 |
| CDKN1C (cyclin dependent kinase inhibitor 1C) | 0.0102 | 0.907 | -0.014 | 0.0285 | 0.0861 |

3 entries already listed, sorted by “synergy score with trametinib”, high to low:
| Target gene | viability z-score, no drug | viability, no drug (fraction) | synergy score with BYL719 | synergy score with cetuximab | synergy score with trametinib |
| --- | --- | --- | --- | --- | --- |
| MUSK (muscle associated receptor tyrosine kinase) | -0.291 | 0.874 | -0.0269 | 0.212 | 0.176 |
| EXOSC10 (exosome component 10) | -1.19 | 0.776 | -0.0858 | -0.129 | -0.0449 |
| DGKA (diacylglycerol kinase alpha) | -2.34 | 0.651 | -0.0782 | 0.0279 | -0.17 |
